The record followed here is article PMC11961382.

Results are given in words; binding and its absence hold for the method and conditions named. In cells and extracts the contact can be indirect. Some binding calls cover weakened binding; strength is not graded here.

The experiment concerns the target T1, MST2 (STK3), endogenous in Huh7 cells (human (endogenous in Huh7)) (UniProt Q13188).
T1 sequence: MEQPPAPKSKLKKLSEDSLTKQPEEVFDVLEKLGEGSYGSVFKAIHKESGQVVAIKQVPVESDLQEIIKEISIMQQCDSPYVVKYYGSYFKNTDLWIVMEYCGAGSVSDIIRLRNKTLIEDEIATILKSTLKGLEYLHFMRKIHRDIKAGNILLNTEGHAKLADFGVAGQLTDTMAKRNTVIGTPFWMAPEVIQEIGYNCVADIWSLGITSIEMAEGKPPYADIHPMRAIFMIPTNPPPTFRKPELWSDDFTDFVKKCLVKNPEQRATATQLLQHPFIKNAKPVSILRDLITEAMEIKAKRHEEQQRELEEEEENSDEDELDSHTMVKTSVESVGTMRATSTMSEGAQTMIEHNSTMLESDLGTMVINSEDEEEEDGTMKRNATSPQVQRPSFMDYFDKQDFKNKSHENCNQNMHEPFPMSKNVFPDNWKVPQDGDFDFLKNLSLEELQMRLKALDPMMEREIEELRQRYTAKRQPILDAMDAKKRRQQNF
Kind of experiment: co-IP; endogenous proteins in Huh7 lysate (RIPA buffer); 2 ug monoclonal antibody and uMACS Protein G MicroBeads, 4 C overnight; washed with RIPA and low salt buffer; western blot; isotype IgG as control.

Regarding “Cyclin-dependent kinase 5 (CDK5), endogenous in Huh7 cells (from UniProt Q00535 1-292) (enzyme)”, the binding entry is “binds”.
